# Measurements from publication PMC4588883.
# T1: nucleostemin-like 1 (NSN1), YFP^N or YFP^C fusion for BiFC (Arabidopsis thaliana) (UniProt Q9M8Z5)
# T1 sequence: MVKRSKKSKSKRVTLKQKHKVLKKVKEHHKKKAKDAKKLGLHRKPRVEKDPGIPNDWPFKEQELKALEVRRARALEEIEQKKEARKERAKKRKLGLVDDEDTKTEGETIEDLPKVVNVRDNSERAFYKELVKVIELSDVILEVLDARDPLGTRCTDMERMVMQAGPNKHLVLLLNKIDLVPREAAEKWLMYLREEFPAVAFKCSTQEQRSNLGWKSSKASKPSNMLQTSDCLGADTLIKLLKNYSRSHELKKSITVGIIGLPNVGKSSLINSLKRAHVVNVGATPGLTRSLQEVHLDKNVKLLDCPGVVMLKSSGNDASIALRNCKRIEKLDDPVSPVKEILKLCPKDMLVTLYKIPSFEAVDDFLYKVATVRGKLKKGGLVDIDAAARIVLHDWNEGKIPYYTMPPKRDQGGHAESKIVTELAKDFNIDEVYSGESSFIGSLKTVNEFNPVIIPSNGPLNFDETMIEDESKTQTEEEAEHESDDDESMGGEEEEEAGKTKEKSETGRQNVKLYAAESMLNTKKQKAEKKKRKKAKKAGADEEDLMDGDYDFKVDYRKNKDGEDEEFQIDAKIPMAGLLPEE
# Legend:
# Test in all cases: split reporter; BiFC: proteins co-expressed as YFP^N and YFP^C fusions in N. benthamiana leaves by agroinfiltration; after 48 h protoplasts observed by confocal laser scanning microscopy
# [1] = molecular target: T1, nucleostemin-like 1 (NSN1), YFP^N or YFP^C fusion for BiFC (Arabidopsis thaliana)
# [2] = molecular target: NSN1 with a deletion of the C-terminal domain (∆C), BiFC fusion (Arabidopsis thaliana)
# [3] = molecular target: NSN1 with a deletion of the GTP-binding motifs G4-G3 (∆GD), BiFC fusion (Arabidopsis thaliana) (UniProt Q9M8Z5)
Molecule,binding [1],binding [2],binding [3]
"ribosomal protein RPL13, BiFC fusion",binds,–,–
"ribosomal protein RPL14, BiFC fusion",binds,–,–
"∆PES-N (a PES mutant lacking the PES-N domain), BiFC fusion (Arabidopsis) (domain or fragment)",binds,–,–
"EBNA1 binding protein 2 (EBP2), YFP^N or YFP^C fusion for BiFC (protein, UniProt Q9LUJ5 1-293) MSLEEDIVSDDEMNMIDEDDATDSEAESLSDSDTENEITEKLAEPTKTAIYNRDGLLDKLQDISWPEDVDWTHKLTVEIDQGGAVDVNDDLARETAFYTQALEGTREAFGKLNEMGVNFLRPANYYAEMVKSDVHMEKVKSRLLHEKKQIEESEERRKARDNKRMAKEVQSQKMKERAKEKKDNIESVKKWRKQRQQSGFSDKAGEPELDFESGKSFQRGGGKKRPGVSPGDRSGGKGRPTSRMGNKKREFRDSKFGHGGRKGLSKQNTAETTNDFKGGFRGGKASGNKRQKR",–,binds,binds
"Arabidopsis Pescadillo (PES), YFP^N or YFP^C fusion for BiFC (protein, UniProt Q9LYK7 1-590) MPKHYRPTGKKKEGNAARYMTRSQALKHLQVNLNLFRRLCIVKGIFPREPKKKIKGNHHTYYHVKDIAFLMHEPLLEKFREIKTYQKKVKKAKAKKNEELARLLLTRQPTYKLDRLIRERYPTFIDALRDLDDCLTMVHLFAVLPASDRENLEVKRVHNCRRLTHEWQAYISRSHALRKVFVSVKGIYYQAEIEGQKITWLTPHAIQQVFTNDVDFGVLLTFLEFYETLLAFINFKLYHSLNVKYPPILDSRLEALAADLYALSRYIDASSRGMAVEPKVDASFSSQSNDREESELRLAQLQHQLPSSEPGALMHLVADNNKEVEEDEETRVCKSLFKDLKFFLSREVPRESLQLVITAFGGMVSWEGEGAPFKEDDESITHHIIDKPSAGHLYLSRVYVQPQWIYDCVNARIILPTEKYLVGRIPPPHLSPFVDNEAEGYVPDYAETIKRLQAAARNEVLPLPGVGKEDLEDPQNLLYAGVMSRAEEAEAAKNKKKMAAQEKQYHEELKMEINGSKDVVAPVLAEGEGEESVPDAMQIAQEDADMPKVLMSRKKRKLYDAMKISQSRKRSGVEIIEQRKKRLNDTQPSS",–,binds,binds

# The next lines start with the values.
binding [1],binding [2],binding [3],Molecule
binds,–,–,"N-terminal PES-N domain of PES, BiFC fusion (Arabidopsis) (domain or fragment)"
no binding,–,–,"ribosomal protein RPL11, YFP^N fusion for BiFC"
binds,–,–,"ribosomal protein RPS6, BiFC fusion"

# No constants are given. Whether binding was seen depends on the method and setting. Binding seen in cells or lysates may run through a third protein. A result given as binding can be weak or reduced; the word gives no strength. Tags and fused reporters may be left off the sequences shown.
